Source: PMC6925144, “A prospective compound screening contest identified broader inhibitors for Sirtuin 1” (Scientific Reports, 2019)
In all, about 3,200 compounds were measured (“TSA(with NAD+) / Primary screening (TSA) / delta Tm (K)”: median about -0.04, highest 2% from about 0.37 on). This is one part of the list.

Chains of the proteins cited; added tags and fusions are not shown. Residues count along the entry.
UniProt Q96EB6, 2-747 limits assumed: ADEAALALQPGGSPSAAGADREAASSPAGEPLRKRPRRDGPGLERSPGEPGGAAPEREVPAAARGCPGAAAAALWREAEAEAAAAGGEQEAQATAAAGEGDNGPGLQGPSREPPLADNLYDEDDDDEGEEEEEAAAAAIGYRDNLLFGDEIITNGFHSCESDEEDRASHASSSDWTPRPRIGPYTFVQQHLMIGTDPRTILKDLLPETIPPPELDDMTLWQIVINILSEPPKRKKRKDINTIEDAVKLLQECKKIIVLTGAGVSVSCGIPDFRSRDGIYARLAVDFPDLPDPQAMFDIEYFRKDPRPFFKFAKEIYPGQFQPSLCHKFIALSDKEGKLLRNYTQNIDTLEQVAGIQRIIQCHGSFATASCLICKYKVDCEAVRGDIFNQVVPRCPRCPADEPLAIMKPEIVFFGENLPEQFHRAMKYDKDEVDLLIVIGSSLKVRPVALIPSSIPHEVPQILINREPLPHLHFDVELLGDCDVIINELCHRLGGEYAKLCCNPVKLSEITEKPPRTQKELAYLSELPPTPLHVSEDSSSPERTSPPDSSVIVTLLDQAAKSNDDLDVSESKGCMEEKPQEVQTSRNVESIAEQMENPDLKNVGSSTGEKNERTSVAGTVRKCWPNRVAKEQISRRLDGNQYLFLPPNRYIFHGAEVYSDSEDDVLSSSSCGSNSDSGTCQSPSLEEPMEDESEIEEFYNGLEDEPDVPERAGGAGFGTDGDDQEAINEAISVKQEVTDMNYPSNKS

What follows are compounds tested against NAD-dependent deacetylase Sirtuin 1 (human, UniProt Q96EB6) (assay: primary screen, delta tm). Conditions: 10 µM.
Design: single well (n = 1, as 'the same TSA')

| Structure (SMILES) | TSA(with NAD+) / Primary screening (TSA) / delta Tm (K) |
| --- | --- |
| NC(=O)C(Cc1ccccc1)NC(=O)CCc1nc2ccccc2[nH]1 (centres unmarked) | -0.32 K |
| C=CCn1c(SCC(=O)NC(C)c2ccco2)nc2ccsc2c1=O (centres unmarked) | -0.05 K |
| Cc1nc2ccccc2c(C)c1C(=O)OCC(N)=O | 0.03 K |
| NC(=O)c1cncc(Oc2nc3ccccc3o2)c1 | -0.18 K |
| NCCS(=O)(=O)CCN | -0.04 K |
| CC(C)c1ccc(C2(C)CC(=O)NC2=O)cc1 (centres unmarked) | -0.11 K |
| O=C(CCCNC(=O)c1ccc(Cl)cc1)Nc1cccc(S(=O)(=O)N2CCOCC2)c1 | 0.01 K |
| O=C(NC1=NCCS1)c1cc(Cl)ccc1O | -0.01 K |
| CCC1CCCCN1c1ncnc2c(C)csc12 (centres unmarked) | -0.01 K |
| Cc1ccc(S(=O)(=O)CCC(=O)OCc2nnc(-c3ccc([N+](=O)[O-])cc3)o2)cc1 | -0.28 K |
| Cn1ncc2c(N3CCC(C(=O)Nc4ccccc4O)CC3)ncnc21 | -0.18 K |
| Cc1ccnc(NC(=O)C2CCN(C(=O)c3cccc(S(=O)(=O)NCC4CCCO4)c3)CC2)c1 (centres unmarked) | -0.28 K |
| COc1ccc2c(COC(=O)c3ccc(=O)n(Cc4ccccc4)n3)cc(=O)oc2c1 | -0.13 K |
| CCOc1ccc(S(=O)(=O)N2CCOCC2)cc1NC(=O)C1=COCCO1 | -0.11 K |
| O=C1NCCN1c1cccc(N2C(=O)Cc3ccccc3C2=O)c1 | -0.31 K |
| NC(=O)NC(CC(=O)OCC(=O)NC12CC3CC(CC(C3)C1)C2)c1cccc(Oc2ccccc2)c1 (centres unmarked) | 0.07 K |
| CC(=O)c1c[nH]c(C(=O)NCCc2ccc(-c3csc(C)n3)s2)c1 | -0.13 K |
| OCCNc1ccc2nnc(C(F)(F)F)n2n1 | -0.09 K |
| Cc1ncc(CN2CCC(Nc3ccc4nnnn4n3)C(C)C2)s1 (centres unmarked) | 0.09 K |
| Cc1ccc(C(C)(C)C)cc1SCC(=O)Nc1cc(C(N)=O)cc(C(N)=O)c1 | 0.06 K |
| NC(=O)C1CCN(c2ncnc3c2c(-c2ccccc2)cn3-c2ccc(Cl)cc2)CC1 | 0.06 K |
| O=C(Nc1cc(S(=O)(=O)N2CCOCC2)ccc1O)C1=COCCO1 | -0.16 K |
| CC1CN=C(Nc2ccc(Cl)c(Cl)c2)S1 (centres unmarked) | 0.15 K |

| Structure (SMILES) | TSA(with NAD+) / Primary screening (TSA) / delta Tm (K) |
| --- | --- |
| O=C(Nc1cccc(S(=O)(=O)N2CCOCC2)c1)c1ccccc1Cc1ccccc1 | -0.09 K |
| Brc1cccc(-c2nc(CSc3nnc(NCc4ccco4)s3)cs2)c1 | 0.22 K |
| NC(=O)C1CCN(c2ncnc3cc(-c4ccc(Br)cc4)sc23)CC1 | -0.03 K |
| Cc1ccc(S(=O)(=O)N(C)c2ccc(C(=O)NCCCN3CCC(C(N)=O)CC3)cc2)cc1 | -0.14 K |
| O=C(Nc1cccc(S(=O)(=O)NCc2ccco2)c1)C1CCN(C(=O)Nc2ccccc2)CC1 | 0.05 K |
| Cc1ccc(Cc2cnc(NC(=O)CC(c3ccccc3)c3ccccc3)s2)cc1 | 0.08 K |
| O=C1NC(C(=O)O)=CC(c2ccccc2C(F)(F)F)N1 (centres unmarked) | -0.12 K |
| COC(C)[C@@H](C)N (some centres unmarked) | -0.21 K |
| CC1CCN(C(=O)C23CC4CC(C2)CC(c2ccccc2)(C4)C3)CC1 | -0.19 K |
| C=CCN(CC=C)C(CNc1ccc2nnnn2n1)C(C)C (centres unmarked) | -0.13 K |
| O=C(Nc1cccc(S(=O)(=O)NCc2ccco2)c1)c1cc(-c2ccccc2)nc2ccccc12 | 0.19 K |
| O=C(c1n[nH]c2c1CCC2)N(CCc1ccccc1)Cc1ccncc1 | 0.07 K |
| C=CCOc1cccc(C2C(C(=O)c3ccco3)=C(O)C(=O)N2CCCN2CCOCC2)c1 (centres unmarked) | -0.11 K |
| Cc1ccc(C(=Nc2c(C)cc(C)cc2C)c2ccc(C)cc2)cc1 | -0.03 K |
| Cc1csc2c(N3CCC4CCC(C3)N4C)ncnc12 (centres unmarked) | -0.02 K |
| Cc1sc2nc(-c3cccs3)nc(N3CCC(C(N)=O)CC3)c2c1C | 0.53 K |
| C=CCC(C)N (centres unmarked) | -0.13 K |
| Cc1ccc2c(COC(=O)c3cccc(S(=O)(=O)N(C)c4ccccc4)c3)cc(=O)oc2c1C | -0.06 K |
| Cc1[nH]ccc1C(=O)N(C)C1CC2CCC(C1)N2C(=O)OC(C)(C)C (centres unmarked) | -0.06 K |
| NCC(CN)(CO)CO | -0.12 K |
| COC(=O)C[C@@H](C)OC(=O)c1cc(F)ccc1F | -0.01 K |
| COc1ccccc1NS(=O)(=O)c1cccc(NC(=O)Cn2[nH]c(=O)c3ccccc3c2=O)c1 | -0.03 K |
| CCN1CCN(c2ccc(NC(=O)NC(C)CCc3ccc(O)cc3)c(C)c2)CC1 (centres unmarked) | -0.22 K |

| Structure (SMILES) | TSA(with NAD+) / Primary screening (TSA) / delta Tm (K) |
| --- | --- |
| O=C1/C(=C/NNC(=O)C23CC4CC(CC(C4)C2)C3)c2ccccc2C(=O)N1Cc1ccccc1 | 0.56 K |
| O=C(NCc1cccc(C(F)(F)F)c1)c1sc2ccccc2c1Cl | -0.06 K |
| CCCOc1ccc(C(=O)C2=C(O)C(=O)N(CCN3CCOCC3)C2c2cccs2)cc1 (centres unmarked) | -0.13 K |
| O=C1NC2(CCc3ccccc3C2)C(=O)N1Cc1nnc(-c2ccc(Cl)cc2)o1 (centres unmarked) | -0.03 K |
| Cc1nc(CN2CCCN(Cc3ccc(C(N)=O)cc3)CC2)no1 | -0.14 K |
| Cc1onc(-c2ccccc2)c1C(=O)NC1CCCc2ccccc21 (centres unmarked) | -0.05 K |
| Cc1cnc(C(=O)N2CCCC2C(=O)Nc2ccccc2)cn1 (centres unmarked) | -0.23 K |
| COc1cc(C(=O)Nc2ncc(Cc3cccc(C)c3)s2)ccc1OCC(=O)N1CCOCC1 | -0.09 K |
| COCCCNC(=O)/C(=C/c1ccc(OCc2ccccc2)cc1)c1nc2ccccc2[nH]1 | -0.09 K |
| CCC(N)CO (centres unmarked) | 0.09 K |
| NC(=O)C1CCCCN1C(=O)CSc1nc2cc(Cl)ccc2[nH]1 (centres unmarked) | 0.02 K |
| CN(Cc1nc(-c2cccnc2)no1)Cc1c[nH]nc1-c1cccnc1 | -0.01 K |
| COC(=O)c1ccc2[nH]c3c(c2c1)CN(c1cn[nH]c(=O)c1Cl)CC3 | -0.03 K |
| O=C(Nc1cccc(S(=O)(=O)NCc2ccco2)c1)c1ccccc1SCC(=O)N1CCCC1 | -0.05 K |
| COc1cccc(N2CCN(CCC(=O)Nc3ccc(C(N)=O)cc3)CC2)c1 | -0.18 K |
| CCn1cnnc1-c1cccc(NC(=O)c2cc(C(N)=O)cn2C)c1 | -0.11 K |
| COc1ccccc1NS(=O)(=O)c1ccc(NC(=O)CNC(=O)C23CC4CC(CC(C4)C2)C3)cc1 | 0.08 K |
| Cc1cccc(N2CCN(C(=O)c3ccc(C(C)(C)C)cc3)CC2)c1C | 0.02 K |
| Cc1nc(N2CCN(Cc3ccncc3)CC2)c2c(-c3cccs3)csc2n1 | -0.01 K |
| O=c1oc(-c2ccc(F)cc2)nn1Cc1nc2ccccc2s1 | -0.11 K |
| O=C1c2ccccc2NC(c2ccc(Cl)cc2)N1C1CC1 (centres unmarked) | -0.06 K |
| CC1CCCN(C(=O)c2ccc(/C=C/c3ccc4ccccc4n3)cc2)C1 (centres unmarked) | -0.24 K |
| COc1ccc(N2C(=O)C(=O)N(CC(=O)Nc3ccccc3SCc3ccccc3)C2=O)cc1 | 0.06 K |

| Structure (SMILES) | TSA(with NAD+) / Primary screening (TSA) / delta Tm (K) |
| --- | --- |
| O=C(CSc1ccccc1)Nc1cc2c(=O)[nH]cnc2cc1F | -0.01 K |
| Cc1cnn(C2CCCN(C(=O)c3ccc(C(N)=S)cc3)C2)c1 (centres unmarked) | -0.11 K |
| Cc1nc(CN2CCN(S(=O)(=O)c3cc(C(N)=O)n(C)c3)CC2)cs1 | -0.05 K |
| CC(C)N(CC(=O)Nc1cc(C(N)=O)cc(C(N)=O)c1)Cc1ccccc1 | -0.01 K |
| O=C(COC(=O)c1ccc(CNS(=O)(=O)c2ccc(F)c(Cl)c2)cc1)c1ccccc1 | 0.01 K |
| O=C(Cc1cccnc1)Nc1ccccc1N1CCC(CO)CC1 | -0.14 K |
| Cc1ccn2c(=O)cc(Cn3cnc4c(oc5ccccc54)c3=O)nc2c1 | -0.12 K |
| Cc1ccc(C23CC4CC(CC(C(=O)N5CCN(S(=O)(=O)c6ccccc6)CC5)(C4)C2)C3)cc1 | -0.02 K |
| O=C(Nc1ccccc1O)C1CCN(c2ncnc3scc(-c4ccc(F)cc4)c23)CC1 | 0.05 K |
| Cc1nc2c3ccccc3nc(N3CCC(C4(C)NC(=O)NC4=O)CC3)n2n1 (centres unmarked) | -0.01 K |
| N#C/C(=C\c1ccc(-c2ccc(Cl)c(C(F)(F)F)c2)o1)C(N)=S | 0.25 K |
| C/C(=N/N)c1ccc2c(c1)-c1ccccc1C2 | -0.14 K |
| O=C1NC(=S)NC(=O)C1=NNc1ccc(OC(F)F)cc1 | -0.01 K |
| O=C(O)[C@H](O)[C@@H](O)C(=O)O | -0.11 K |
| CCOc1ccc(C2C(C(=O)c3cccc(OC)c3)=C(O)C(=O)N2CCCN2CCOCC2)cc1 (centres unmarked) | -0.11 K |
| COc1ccc(NC(=O)CSc2nnc(Nc3ccc(SC(F)F)cc3)s2)cc1OC | 0.28 K |
| C#CCCCN | 0.09 K |
| CC(C)COc1ccc(C(=O)C2=C(O)C(=O)N(CCN3CCOCC3)C2c2cccnc2)cc1 (centres unmarked) | -0.01 K |
| Cc1cc(NC(=O)CCc2nc3ccccc3[nH]2)ccc1N1CCCC1 | -0.15 K |
| O=S(=O)(/C=C/c1ccccc1)N1CCN(c2ncnc3sc4c(c23)CCCCC4)CC1 | 0.07 K |
| CC(C)Oc1ccc(C(=O)C2=C(O)C(=O)N(CCCN3CCOCC3)C2c2cccs2)cc1 (centres unmarked) | 0.01 K |
| COc1ccc(C(=O)C2=C(O)C(=O)N(CCCN3CCOCC3)C2c2ccco2)cc1Cl (centres unmarked) | -0.11 K |
| Cc1ccnc(NC(=O)C2CCN(c3nc(C)nc4scc(-c5cccs5)c34)CC2)c1 | -0.15 K |

Looked up one by one from the entries so far:

| Structure (SMILES) | TSA(with NAD+) / Primary screening (TSA) / delta Tm (K) |
| --- | --- |
| Cc1ccc(S(=O)(=O)N(C)c2ccc(C(=O)NCCCN3CCC(C(N)=O)CC3)cc2)cc1 | -0.14 K |
| CC(C)N(CC(=O)Nc1cc(C(N)=O)cc(C(N)=O)c1)Cc1ccccc1 | -0.01 K |
| O=C(c1n[nH]c2c1CCC2)N(CCc1ccccc1)Cc1ccncc1 | 0.07 K |
| O=C(O)[C@H](O)[C@@H](O)C(=O)O | -0.11 K |
| O=C(CCCNC(=O)c1ccc(Cl)cc1)Nc1cccc(S(=O)(=O)N2CCOCC2)c1 | 0.01 K |
| CCOc1ccc(C2C(C(=O)c3cccc(OC)c3)=C(O)C(=O)N2CCCN2CCOCC2)cc1 (centres unmarked) | -0.11 K |
